Measurements from patent US20060173159A1 (priority 2002, published 2006).

Experiment: general procedure: Boc solid-phase peptide synthesis
Conditions: whole synthesis

In the case of “CLSQLHSGLFLYQGLLQALEGISPELGPTLDTLQLDVADFATTIWQQMEEL-thioester (where Cys^1 is Acm protected) (CLSQLHSGLFLYQGLLQALEGISPELGPTLDTLQLDVADFATTIWQQMEEL; C-terminal thioester; GRFN 1852 peptide)”, the difficulty met is reported as “the non-polymer modified peptide GRFN 1852 is poorly soluble”.
